Assay results: patent US20230167179A1 (CENTRE NATIONAL DE LA RECHERCHE SCIENTIFIQUE, published 2023)
Results are given in words; binding and its absence hold for the method and conditions named. Some entries that bind do so weakly or less than the wild type.

Protein sequences, listed by entry. Tags and fused reporters are not part of them. Lines headed by an entry give the natural chain unless they say otherwise; changes in a name come on top.
UniProt P18510: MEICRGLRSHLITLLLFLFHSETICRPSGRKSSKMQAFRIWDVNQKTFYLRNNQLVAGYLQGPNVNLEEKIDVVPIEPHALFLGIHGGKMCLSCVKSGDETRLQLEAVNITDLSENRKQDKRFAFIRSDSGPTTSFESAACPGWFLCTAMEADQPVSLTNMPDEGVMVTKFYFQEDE

Columns and labels:
[1] = target: native IL-1RA produced by human cells (human) (UniProt P18510); experiment: sandwich ELISA on diluted human sera
[2] = target: native IL-1RA produced by human cells (human) (UniProt P18510); experiment: sandwich ELISA, OD 450 nm, capture antibody 1 µg/well, 10 µl of supernatant of THP1 cells with or without PMA, biotinylated detection antibody
[3] = target: native IL-1RA produced by human cells (human) (UniProt P18510); experiment: sandwich ELISA with antibody pairs, supernatant of PMA-stimulated THP1 cells

Measured: binding

B1: 908.9G5B9 (antibody, V domains shown)
VH: EVQLQQSGAELVKPGASVKLSCTVSGFNITDTYIHWVKQRPEKGLEWIGRIDPANGNTKYDPKLQGKATITADTSSNTAYLQLSSLTSEDTAVYYCARDGTYVYYAMDYWGQGTSVTVSS
VL: DIQMTQSPASLSASVGETVTITCRASENIFIYLAWYQQKQGKSPQLLVYNAKTLAEGVPSRFSGSGSGTQFSLKINSLLPEDFGSYYCQHHYGIPFTFGSGTKLEIE
notes: Biotinylated in the Octet assay; fixed (capture) antibody in the sandwich ELISAs
binds: all assays above

B2: 908.9E11B6 (antibody, IgG1, V domains shown)
VH: QVQLKESGPGLVAPSQSLSITCTVSGFSLTSYGVHWVRQPPGKGLEWLGVIWAGGVTHYNSALMSRLNISKDNSQSQVFLKMNSLRTDDTAMYYCARGGALLRSHFDYWGQGTTLTVSS
VL: QAVVTQESALTTSPGETVTLTCRSSTGAVTTSNYANWVQEKPDHLFTGLIGGTNNRAPGVPARFSGSLIGDKAALTITGAQTEDEAIYHCALWYSNLWVFGGRTKLTVL
binds: all assays above

B3: 908.10E12C1 (antibody, IgG1, V domains shown)
VH: EVQLQQSGPELVKPGASVKISCKTSGYTFTEYTMHWVKQSHGKSLEWIGSINPNNGGTNYNQKFKGKATLTVDKSSNTAYMELRSLTSGDSAVYYCARTLYYAMDYWGQGTSVTVSS
VL: DIVMTQSPSSLAMSVGQKVTMSCKSSQSLLNSSNQKNYLAWYQQKPRQSPKLLVYFASTRDSGVPDRFLGSGSGTDFTLTINRVQAEDLADYFCQQHYILPPTFGAGTKLELK
binds: all assays above
